From the supplement of paper PMC5407854, “Inhibitor of ppGalNAc-T3-mediated O-glycosylation blocks cancer cell invasiveness and lowers FGF23 levels” (eLife, 2017)
Some of the results follow. Most entries show no effect beyond the scatter of the controls.

Each molecule was assayed on ppGalNAc-T3 sensor (assay: T3 sensor activation Q score (MG/GFP ratio z-score vs DMSO controls) (SD units); higher = more sensor activation (inhibition of ppGalNAc-T3 glycosylation)). Conditions: HEK293 sensor cells; 10 µM; 6 h.
Method: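 Cells were treated with compound at 10 uM for 6 h, then MG/GFP ratio was read by flow cytometry (10,000 cells per well, duplicate wells). Q = (R - R_neg)/SD_neg relative to DMSO vehicle controls; the signal rises when the glycosyltransferase is inhibited.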

Compound	T3 sensor activation Q score
CC(=O)c1cccc(NC(=O)C(C)N2C(=O)c3ccccc3C2=O)c1 (stereo not drawn)	-0.395
Cc1ccc(NC(=O)c2ccc(C(C)(C)C)cc2)cc1	-0.18
COc1ccc(-c2nnc(N)o2)cc1	0.4
O=C(Nc1cnc2ccccc2c1)C12CC3CC(CC(C3)C1)C2	0.025
CC(C)CC(=O)N1CCN(Cc2ccccc2Cl)CC1	-0.245
COc1ccc(CC2=C(O)c3ccccc3C(=O)C2=O)cc1	1.6
O=S(=O)(c1ccccc1)c1ccc(N2CCCCC2)cc1	1.25
CC1CCN(S(=O)(=O)c2cc(C(=O)O)ccc2Br)CC1	0.65
COc1cc(S(=O)(=O)N2CCOCC2)c(OC)cc1Cl	-0.445
COc1ccc(Br)cc1S(=O)(=O)N1CC(C)CC(C)C1 (stereo not drawn)	-0.12
CC1NC(C(=O)O)Cc2c1[nH]c1ccccc21 (stereo not drawn)	1.05
Cc1cc(C)n(-c2nc3ccccc3s2)n1	-0.135
Cn1c(COc2ccccc2Br)nc2ccccc21	0.075
CCCCOc1ccc(-c2ncc([N+](=O)[O-])cn2)cc1	0.095
O=C1N=C(c2ccccc2)C(c2ccccc2)N1 (stereo not drawn)	0.02
COc1cc(CN2CCN(Cc3ccccc3)CC2)cc(OC)c1O	0.295
CCOC(=O)N1CCN(Cc2cccc(F)c2)CC1	0.595
COc1cc(C)nc(NN)n1	0.285
CN(C)C1=C(Nc2cccc(Cl)c2)C(=O)c2ccccc2C1=O	-0.205
CCCCOc1ccc(CC(=O)O)cc1	-0.155
c1ccc(CNc2ncnc3nc[nH]c23)cc1	0.8
CC1C(c2ccccc2)N(C)CCC1(O)c1ccccc1 (stereo not drawn)	0.7
COc1cc2c(cc1OC)C(c1ccccc1[N+](=O)[O-])N(C(C)=O)CC2 (stereo not drawn)	-0.08

In a second layout: results already given.
Compound,T3 sensor activation Q score
CC(C)CC(=O)N1CCN(Cc2ccccc2Cl)CC1,-0.245
COc1ccc(CC2=C(O)c3ccccc3C(=O)C2=O)cc1,1.6
CC1CCN(S(=O)(=O)c2cc(C(=O)O)ccc2Br)CC1,0.65
Cn1c(COc2ccccc2Br)nc2ccccc21,0.075
COc1cc(C)nc(NN)n1,0.285
COc1cc2c(cc1OC)C(c1ccccc1[N+](=O)[O-])N(C(C)=O)CC2 (stereo not drawn),-0.08
